# From the supplement of paper PMC8728848
# Some of the results follow.
# B1: SUN4P (Saccharomyces cerevisiae), P53616 (protein)
# chain: MGSSHHHHHHSSGLVPRGSHNGSIYGDLADFSGPYEKFEDGTIPCGQFPSGQGVIPISWLDEGGWSGVENTDTSTGGSCKEGSYCSYACQPGMSKTQWPSDQPSDGRSIGGLLCKDGYLYRSNTDTDYLCEWGVDAAYVVSELSNDVAICLTDYPGTENMVIPTYVQAGDSLPLTVVDQDTYYTWQGLKTSAQYYVNNAGISVEDACVWGSSSSGVGNWAPLNFGAGSSDGVAYLSLIPNPNNGNALNFNVKIVAADDSSTVNGECIYENGSFSGGSDGCTVSVTAGKAKFVLYN
# What was measured:
# Test in all cases: glycan array binding signal (z-score within array); higher = stronger binding
# Conditions in all cases: glycan notation: IUPAC condensed, linker removed; mutation: R276L
# [1] = biological target: Neu5Ac(a2-3)Gal(b1-4)GlcNAc(b1-3)[Neu5Ac(a2-3)Gal(b1-4)GlcNAc(b1-6)]GalNAc
# Outline: (§1)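 Arrays were curated from the Consortium for Functional Glycomics database, 3228 in total, and kept only where the protein sequence was available. Binding is expressed as a within-array Z-score. This score was averaged across arrays of the same protein sequence at different concentrations or buffers and across linkers, and negative values can be read as non-binding.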
# [2] = biological target: Neu5Ac(a2-3)Gal(b1-4)GlcNAc(b1-6)GalNAc
# Outline: as §1
# [3] = biological target: Neu5Ac(a2-3)Gal(b1-4)GlcNAc(b1-6)[Gal(b1-3)]GalNAc
# Outline: as §1
# [4] = biological target: Neu5Ac(a2-3)Gal(b1-4)GlcNAc(b1-6)[Neu5Ac(a2-3)Gal(b1-3)]GalNAc
# Outline: as §1
# [5] = biological target: Neu5Ac(a2-3)Gal(b1-4)GlcNAc6S
# Outline: as §1
# [6] = biological target: Neu5Ac(a2-3)Gal(b1-4)[Fuc(a1-3)]GlcNAc
# Outline: as §1
# [7] = biological target: Neu5Ac(a2-3)Gal(b1-4)[Fuc(a1-3)]GlcNAc(b1-2)Man
# Outline: as §1
# [8] = biological target: Neu5Ac(a2-3)Gal(b1-4)[Fuc(a1-3)]GlcNAc(b1-3)Gal
# Outline: as §1
# [9] = biological target: Neu5Ac(a2-3)Gal(b1-4)[Fuc(a1-3)]GlcNAc(b1-3)Gal(b1-4)GlcNAc
# Outline: as §1
# [10] = biological target: Neu5Ac(a2-3)Gal(b1-4)[Fuc(a1-3)]GlcNAc(b1-3)Gal(b1-4)[Fuc(a1-3)]GlcNAc(b1-3)Gal(b1-4)[Fuc(a1-3)]GlcNAc
# Outline: as §1
# [11] = biological target: Neu5Ac(a2-3)Gal(b1-4)[Fuc(a1-3)]GlcNAc(b1-3)GalNAc
# Outline: as §1
# [12] = biological target: Neu5Ac(a2-3)Gal(b1-4)[Fuc(a1-3)]GlcNAc(b1-6)[Gal(b1-3)]GalNAc
# Outline: as §1
# [13] = biological target: Neu5Ac(a2-3)Gal(b1-4)[Fuc(a1-3)]GlcNAc(b1-6)[Neu5Ac(a2-3)Gal(b1-3)]GalNAc
# Outline: as §1
# [14] = biological target: Neu5Ac(a2-3)Gal(b1-4)[Fuc(a1-3)]GlcNAc6S
# Outline: as §1
# [15] = biological target: Neu5Ac(a2-3)Gal6S(b1-4)GlcNAc
# Outline: as §1
# [16] = biological target: Neu5Ac(a2-3)Gal6S(b1-4)[Fuc(a1-3)]GlcNAc
# Outline: as §1
# Neu5Ac(a2-3)GalNAc = biological target: Neu5Ac(a2-3)GalNAc
# Outline: as §1
# [17] = biological target: Neu5Ac(a2-3)GalNAc(b1-4)GlcNAc
# Outline: as §1
# [18] = biological target: Neu5Ac(a2-3)[GalNAc(b1-4)]Gal(b1-4)Glc
# Outline: as §1
# [19] = biological target: Neu5Ac(a2-3)[GalNAc(b1-4)]Gal(b1-4)GlcNAc
# Outline: as §1
# [20] = biological target: Neu5Ac(a2-3)[GalNAc(b1-4)]Gal(b1-4)GlcNAc(b1-3)GalNAc
# Outline: as §1
# [21] = biological target: Neu5Ac(a2-3)[Neu5Ac(a2-6)]GalNAc
# Outline: as §1
# Neu5Ac(a2-6)Gal = biological target: Neu5Ac(a2-6)Gal
# Outline: as §1
# [22] = biological target: Neu5Ac(a2-6)Gal(b1-3)GlcNAc(b1-3)[Gal(b1-4)GlcNAc(b1-6)]Gal(b1-4)Glc
# Outline: as §1
# Neu5Ac(a2-6)Gal(b1-4)Glc = biological target: Neu5Ac(a2-6)Gal(b1-4)Glc
# Outline: as §1
# [23] = biological target: Neu5Ac(a2-6)Gal(b1-4)GlcNAc
# Outline: as §1
# [24] = biological target: Neu5Ac(a2-6)Gal(b1-4)GlcNAc(b1-2)Man
# Outline: as §1
# [25] = biological target: Neu5Ac(a2-6)Gal(b1-4)GlcNAc(b1-2)Man(a1-3)Man(b1-4)GlcNAc(b1-4)GlcNAc
# Outline: as §1
# [26] = biological target: Neu5Ac(a2-6)Gal(b1-4)GlcNAc(b1-2)Man(a1-3)[Gal(b1-4)GlcNAc(b1-2)Man(a1-6)]Man(b1-4)GlcNAc(b1-4)GlcNAc
# Outline: as §1
# [27] = biological target: Neu5Ac(a2-6)Gal(b1-4)GlcNAc(b1-2)Man(a1-3)[GlcNAc(b1-2)Man(a1-6)]Man(b1-4)GlcNAc(b1-4)GlcNAc
# Outline: as §1
# [28] = biological target: Neu5Ac(a2-6)Gal(b1-4)GlcNAc(b1-2)Man(a1-3)[GlcNAc(b1-4)][Neu5Ac(a2-6)Gal(b1-4)GlcNAc(b1-2)Man(a1-6)]Man(b1-4)GlcNAc(b1-4)GlcNAc
# Outline: as §1
binder,measurement,setting,value
B1,glycan array binding signal (z-score),[1],-0.132
same,glycan array binding signal (z-score),[2],1.78
same,glycan array binding signal (z-score),[3],1.59
same,glycan array binding signal (z-score),[4],1.04
same,glycan array binding signal (z-score),[5],-0.077
same,glycan array binding signal (z-score),[6],0.024
same,glycan array binding signal (z-score),[7],-0.186
same,glycan array binding signal (z-score),[8],-0.338
same,glycan array binding signal (z-score),[9],0.472
same,glycan array binding signal (z-score),[10],0.273
same,glycan array binding signal (z-score),[11],0.149
same,glycan array binding signal (z-score),[12],0.339
same,glycan array binding signal (z-score),[13],1.2
same,glycan array binding signal (z-score),[14],0.84
same,glycan array binding signal (z-score),[15],0.492
same,glycan array binding signal (z-score),[16],-1.12
same,glycan array binding signal (z-score),Neu5Ac(a2-3)GalNAc,-0.281
same,glycan array binding signal (z-score),[17],-1.69
same,glycan array binding signal (z-score),[18],1.36
same,glycan array binding signal (z-score),[19],-0.232
same,glycan array binding signal (z-score),[20],-0.876
same,glycan array binding signal (z-score),[21],-0.295
same,glycan array binding signal (z-score),Neu5Ac(a2-6)Gal,0.469
same,glycan array binding signal (z-score),[22],-0.281
same,glycan array binding signal (z-score),Neu5Ac(a2-6)Gal(b1-4)Glc,-0.078
same,glycan array binding signal (z-score),[23],0.187
same,glycan array binding signal (z-score),[24],0.374
same,glycan array binding signal (z-score),[25],-0.301
same,glycan array binding signal (z-score),[26],-0.654
same,glycan array binding signal (z-score),[27],0.46
same,glycan array binding signal (z-score),[28],-0.15

# Part of the list above, bar-delimited:
binder | measurement | setting | value
B1 | glycan array binding signal (z-score) | [19] | -0.232
same | glycan array binding signal (z-score) | [20] | -0.876
